One compound from ChEMBL document CHEMBL1143970, “Structure-activity relationships and CoMFA of N-3 substituted phenoxypropyl piperidine benzimidazol-2-one analogues as NOP receptor agonists with analgesic properties” (Bioorg Med Chem, 2008) can be followed below.

Amino acid sequences for entries named in this document (tags omitted).
UniProt P41146, whole entry: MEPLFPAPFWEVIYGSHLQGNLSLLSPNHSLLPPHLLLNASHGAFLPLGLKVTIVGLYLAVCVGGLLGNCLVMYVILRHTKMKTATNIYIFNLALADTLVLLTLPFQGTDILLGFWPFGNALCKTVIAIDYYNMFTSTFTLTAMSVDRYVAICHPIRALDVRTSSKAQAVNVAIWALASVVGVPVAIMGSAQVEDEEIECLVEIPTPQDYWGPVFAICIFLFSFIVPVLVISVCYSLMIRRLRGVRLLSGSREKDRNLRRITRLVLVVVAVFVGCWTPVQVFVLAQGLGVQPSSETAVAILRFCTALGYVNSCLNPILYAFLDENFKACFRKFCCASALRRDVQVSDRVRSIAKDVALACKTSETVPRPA

This test has as its target Nociceptin receptor (Homo sapiens, UniProt P41146). Nature of the test: Displacement of [3H]nociceptin from human NOP receptor expressed in CHO cells. (Displacement assays read how much labelled ligand stays bound in the presence of the test substance.)

For part of its entries the source gives two or more results. This list holds those alone. There may be further records. The records of an entry differ, and nothing given here explains why; they may come from other doses, times, organisms or constructs than stated.

As to `COc1ccc(C)c(OC(CCN2CCC(n3c(=O)n(Cc4ncn[nH]4)c4ccccc43)CC2)C(C)C)c1` (stereo unspecified), the Log Ki was -9.05 and -8.76.
